This is one part of the list.
Tests used:
Experiment in all cases: log2 fold change, soluble protein after heating vs DMSO (PISA); higher = thermal stabilisation; K562 cells, 10 uM, 30 min; active = over 0.2 and 3.5 SD of the protein, either way, in both replicates (recomputed)
[1] = compound: NC(=O)Nc1cc(-c2cccc(F)c2)sc1C(=O)N[C@H]1CCCNC1
Outline: (§1)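 K562 cells (2×10^6 cells/mL) were treated with 10 μM compound for 30 min, and aliquots were heated for 3 min over 48°C-58°C. Pooled aliquots were extracted in PBS with 0.5% NP-40 at 4°C, and the supernatant after 21,000xg for 90 min was measured by TMTpro 16plex LC-MS/MS with channel sums equalised. Reported thermal stability, relative to control samples and from duplicates, is a log2 fold change.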

Chains of the proteins cited; added tags and fusions are not shown. Lines headed by an entry give the natural chain unless they say otherwise; changes in a name come on top.
UniProt Q9NYR9: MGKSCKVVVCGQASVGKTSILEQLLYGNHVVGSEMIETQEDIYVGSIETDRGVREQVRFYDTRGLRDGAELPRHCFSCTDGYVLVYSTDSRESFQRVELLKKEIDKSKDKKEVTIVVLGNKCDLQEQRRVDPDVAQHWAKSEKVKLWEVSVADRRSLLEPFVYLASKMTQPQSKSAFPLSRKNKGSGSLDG
UniProt Q14494: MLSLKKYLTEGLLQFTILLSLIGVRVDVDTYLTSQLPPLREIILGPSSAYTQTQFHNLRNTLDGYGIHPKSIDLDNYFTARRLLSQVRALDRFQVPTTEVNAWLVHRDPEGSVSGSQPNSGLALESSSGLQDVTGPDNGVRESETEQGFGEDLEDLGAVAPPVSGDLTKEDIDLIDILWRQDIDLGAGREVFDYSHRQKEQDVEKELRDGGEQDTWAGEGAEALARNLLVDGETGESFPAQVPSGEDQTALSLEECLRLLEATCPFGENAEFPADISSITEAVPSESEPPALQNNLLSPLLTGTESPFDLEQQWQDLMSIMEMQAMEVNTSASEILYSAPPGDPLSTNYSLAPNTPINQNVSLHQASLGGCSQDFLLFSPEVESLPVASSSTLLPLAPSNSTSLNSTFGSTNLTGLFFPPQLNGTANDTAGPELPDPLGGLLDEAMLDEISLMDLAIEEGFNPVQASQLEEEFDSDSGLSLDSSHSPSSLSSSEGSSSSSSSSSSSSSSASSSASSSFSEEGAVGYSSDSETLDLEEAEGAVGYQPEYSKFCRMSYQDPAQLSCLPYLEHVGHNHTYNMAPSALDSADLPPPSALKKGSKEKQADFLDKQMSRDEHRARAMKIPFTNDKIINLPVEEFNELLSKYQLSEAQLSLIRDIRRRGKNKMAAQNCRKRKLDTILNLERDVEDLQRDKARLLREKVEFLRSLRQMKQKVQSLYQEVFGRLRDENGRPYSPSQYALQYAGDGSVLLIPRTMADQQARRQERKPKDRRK
UniProt P69849: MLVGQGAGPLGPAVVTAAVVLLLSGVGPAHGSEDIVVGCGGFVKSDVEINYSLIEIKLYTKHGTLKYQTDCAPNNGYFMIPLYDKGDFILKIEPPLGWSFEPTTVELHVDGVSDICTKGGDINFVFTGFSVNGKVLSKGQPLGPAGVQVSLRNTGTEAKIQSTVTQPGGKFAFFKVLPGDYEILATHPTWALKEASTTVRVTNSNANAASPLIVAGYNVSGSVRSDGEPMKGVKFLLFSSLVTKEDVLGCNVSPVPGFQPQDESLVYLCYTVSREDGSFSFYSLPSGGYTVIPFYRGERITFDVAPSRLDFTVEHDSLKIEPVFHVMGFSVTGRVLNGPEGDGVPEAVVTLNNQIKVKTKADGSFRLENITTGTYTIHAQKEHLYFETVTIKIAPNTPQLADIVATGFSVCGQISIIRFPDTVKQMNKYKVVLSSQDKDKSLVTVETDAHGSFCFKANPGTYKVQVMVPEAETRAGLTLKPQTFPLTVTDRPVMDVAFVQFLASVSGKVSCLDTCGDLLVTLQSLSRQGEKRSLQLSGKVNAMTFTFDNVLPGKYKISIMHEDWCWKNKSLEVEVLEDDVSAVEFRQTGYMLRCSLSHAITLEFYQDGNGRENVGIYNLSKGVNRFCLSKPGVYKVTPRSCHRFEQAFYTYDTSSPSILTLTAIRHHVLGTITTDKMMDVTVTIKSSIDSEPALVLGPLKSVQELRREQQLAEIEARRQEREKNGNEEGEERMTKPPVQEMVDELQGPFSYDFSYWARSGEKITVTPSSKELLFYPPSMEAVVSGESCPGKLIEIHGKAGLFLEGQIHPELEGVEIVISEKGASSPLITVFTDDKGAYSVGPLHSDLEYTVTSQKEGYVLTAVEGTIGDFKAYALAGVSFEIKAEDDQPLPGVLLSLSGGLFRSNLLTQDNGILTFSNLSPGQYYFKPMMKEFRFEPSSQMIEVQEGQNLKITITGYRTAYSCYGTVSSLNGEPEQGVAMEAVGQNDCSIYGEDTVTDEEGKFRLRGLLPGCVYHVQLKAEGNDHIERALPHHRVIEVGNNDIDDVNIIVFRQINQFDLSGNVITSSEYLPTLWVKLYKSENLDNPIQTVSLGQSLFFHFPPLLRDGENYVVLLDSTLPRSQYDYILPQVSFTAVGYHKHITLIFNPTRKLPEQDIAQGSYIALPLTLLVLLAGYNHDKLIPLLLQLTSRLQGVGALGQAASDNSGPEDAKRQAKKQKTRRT
UniProt Q9Y239: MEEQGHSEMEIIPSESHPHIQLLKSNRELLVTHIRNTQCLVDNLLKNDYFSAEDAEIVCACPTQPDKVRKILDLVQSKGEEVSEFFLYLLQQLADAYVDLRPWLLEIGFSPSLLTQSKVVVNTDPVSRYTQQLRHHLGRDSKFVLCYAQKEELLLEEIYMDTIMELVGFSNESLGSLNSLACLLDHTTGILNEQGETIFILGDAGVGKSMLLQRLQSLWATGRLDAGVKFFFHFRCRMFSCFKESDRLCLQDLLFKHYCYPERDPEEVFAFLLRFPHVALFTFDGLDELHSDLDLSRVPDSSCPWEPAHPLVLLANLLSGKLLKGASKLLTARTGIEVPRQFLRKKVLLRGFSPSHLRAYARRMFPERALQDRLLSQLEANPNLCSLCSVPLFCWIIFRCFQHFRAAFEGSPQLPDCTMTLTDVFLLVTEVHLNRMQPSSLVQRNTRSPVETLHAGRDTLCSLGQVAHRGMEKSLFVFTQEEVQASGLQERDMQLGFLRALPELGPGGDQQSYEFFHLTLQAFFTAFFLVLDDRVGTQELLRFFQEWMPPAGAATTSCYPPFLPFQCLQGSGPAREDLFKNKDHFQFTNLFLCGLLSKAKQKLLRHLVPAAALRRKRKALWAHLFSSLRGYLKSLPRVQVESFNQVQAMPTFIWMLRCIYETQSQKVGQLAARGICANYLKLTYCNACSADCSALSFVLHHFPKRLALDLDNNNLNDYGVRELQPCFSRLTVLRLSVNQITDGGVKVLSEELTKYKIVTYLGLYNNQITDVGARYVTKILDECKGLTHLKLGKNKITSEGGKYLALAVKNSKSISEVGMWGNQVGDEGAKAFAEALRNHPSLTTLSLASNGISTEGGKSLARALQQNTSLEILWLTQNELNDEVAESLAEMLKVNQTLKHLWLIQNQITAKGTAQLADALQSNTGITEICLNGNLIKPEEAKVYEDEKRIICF
UniProt Q6KC79: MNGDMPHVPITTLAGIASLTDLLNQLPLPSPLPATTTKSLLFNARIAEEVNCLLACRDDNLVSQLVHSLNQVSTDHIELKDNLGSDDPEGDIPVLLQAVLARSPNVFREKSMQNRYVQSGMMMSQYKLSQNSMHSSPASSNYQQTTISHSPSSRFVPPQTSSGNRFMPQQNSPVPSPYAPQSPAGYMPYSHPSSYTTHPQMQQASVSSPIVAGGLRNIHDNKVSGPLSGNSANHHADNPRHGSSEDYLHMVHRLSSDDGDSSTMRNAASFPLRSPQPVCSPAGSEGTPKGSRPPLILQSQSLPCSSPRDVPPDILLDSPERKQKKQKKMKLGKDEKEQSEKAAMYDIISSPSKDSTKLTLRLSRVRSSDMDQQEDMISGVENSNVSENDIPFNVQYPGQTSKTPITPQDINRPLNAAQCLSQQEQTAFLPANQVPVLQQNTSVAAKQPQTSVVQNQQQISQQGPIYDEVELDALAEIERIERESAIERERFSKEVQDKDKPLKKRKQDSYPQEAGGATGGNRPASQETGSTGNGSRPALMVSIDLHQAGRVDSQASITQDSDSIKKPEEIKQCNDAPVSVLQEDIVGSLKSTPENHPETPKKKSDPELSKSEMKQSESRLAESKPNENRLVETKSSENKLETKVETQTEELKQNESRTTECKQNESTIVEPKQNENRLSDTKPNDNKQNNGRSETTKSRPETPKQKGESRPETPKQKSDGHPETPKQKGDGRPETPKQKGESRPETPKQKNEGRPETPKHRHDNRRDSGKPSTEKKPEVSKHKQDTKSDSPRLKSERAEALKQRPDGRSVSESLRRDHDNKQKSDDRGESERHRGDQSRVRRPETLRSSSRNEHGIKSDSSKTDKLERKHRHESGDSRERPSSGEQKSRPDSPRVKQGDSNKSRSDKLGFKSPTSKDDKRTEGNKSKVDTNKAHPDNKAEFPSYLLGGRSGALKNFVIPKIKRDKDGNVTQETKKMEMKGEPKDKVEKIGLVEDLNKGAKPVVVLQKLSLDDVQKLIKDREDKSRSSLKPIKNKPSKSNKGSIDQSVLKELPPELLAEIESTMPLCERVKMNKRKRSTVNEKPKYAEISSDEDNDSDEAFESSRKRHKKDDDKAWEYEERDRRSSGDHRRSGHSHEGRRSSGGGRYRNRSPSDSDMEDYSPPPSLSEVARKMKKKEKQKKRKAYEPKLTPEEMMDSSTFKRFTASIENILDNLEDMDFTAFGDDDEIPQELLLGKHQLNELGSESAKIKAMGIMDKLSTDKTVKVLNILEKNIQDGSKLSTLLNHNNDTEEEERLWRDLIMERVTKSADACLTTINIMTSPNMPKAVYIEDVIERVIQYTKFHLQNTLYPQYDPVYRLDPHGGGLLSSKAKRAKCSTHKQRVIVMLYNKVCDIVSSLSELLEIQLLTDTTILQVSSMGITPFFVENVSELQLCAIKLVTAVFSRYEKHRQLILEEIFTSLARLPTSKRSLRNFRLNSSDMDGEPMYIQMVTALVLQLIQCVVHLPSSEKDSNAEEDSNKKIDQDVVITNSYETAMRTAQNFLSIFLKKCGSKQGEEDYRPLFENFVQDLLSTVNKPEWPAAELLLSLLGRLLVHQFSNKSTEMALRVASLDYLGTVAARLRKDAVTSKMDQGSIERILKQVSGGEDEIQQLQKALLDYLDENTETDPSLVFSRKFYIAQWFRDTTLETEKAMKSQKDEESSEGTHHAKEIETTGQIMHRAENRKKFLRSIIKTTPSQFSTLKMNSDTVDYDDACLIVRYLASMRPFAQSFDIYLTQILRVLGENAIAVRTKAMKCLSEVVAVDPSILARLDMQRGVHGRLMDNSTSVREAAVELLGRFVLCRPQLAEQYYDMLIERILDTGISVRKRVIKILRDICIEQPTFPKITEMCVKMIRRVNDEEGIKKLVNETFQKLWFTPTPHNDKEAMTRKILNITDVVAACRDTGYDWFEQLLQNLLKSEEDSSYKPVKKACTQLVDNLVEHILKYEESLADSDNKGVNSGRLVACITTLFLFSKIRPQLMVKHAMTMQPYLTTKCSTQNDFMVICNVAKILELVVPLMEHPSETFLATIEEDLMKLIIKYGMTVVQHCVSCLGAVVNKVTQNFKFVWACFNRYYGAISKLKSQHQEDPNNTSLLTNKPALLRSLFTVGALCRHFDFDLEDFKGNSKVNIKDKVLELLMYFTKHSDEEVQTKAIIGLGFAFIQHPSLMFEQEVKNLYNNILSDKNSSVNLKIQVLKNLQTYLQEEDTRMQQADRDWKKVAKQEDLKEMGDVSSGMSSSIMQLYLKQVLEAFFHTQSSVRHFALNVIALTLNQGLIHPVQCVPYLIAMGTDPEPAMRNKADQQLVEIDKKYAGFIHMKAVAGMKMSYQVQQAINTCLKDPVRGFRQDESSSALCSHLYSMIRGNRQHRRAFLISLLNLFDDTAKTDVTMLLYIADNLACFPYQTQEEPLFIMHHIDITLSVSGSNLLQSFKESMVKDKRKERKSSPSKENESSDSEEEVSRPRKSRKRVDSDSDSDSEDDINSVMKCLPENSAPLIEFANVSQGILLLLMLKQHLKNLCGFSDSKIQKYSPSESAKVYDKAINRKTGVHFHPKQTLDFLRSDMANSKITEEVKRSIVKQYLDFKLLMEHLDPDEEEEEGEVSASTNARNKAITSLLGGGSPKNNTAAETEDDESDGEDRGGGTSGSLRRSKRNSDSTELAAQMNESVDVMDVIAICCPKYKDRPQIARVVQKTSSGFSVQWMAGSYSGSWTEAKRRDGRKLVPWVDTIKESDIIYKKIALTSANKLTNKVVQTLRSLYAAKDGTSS
UniProt Q8N5F7: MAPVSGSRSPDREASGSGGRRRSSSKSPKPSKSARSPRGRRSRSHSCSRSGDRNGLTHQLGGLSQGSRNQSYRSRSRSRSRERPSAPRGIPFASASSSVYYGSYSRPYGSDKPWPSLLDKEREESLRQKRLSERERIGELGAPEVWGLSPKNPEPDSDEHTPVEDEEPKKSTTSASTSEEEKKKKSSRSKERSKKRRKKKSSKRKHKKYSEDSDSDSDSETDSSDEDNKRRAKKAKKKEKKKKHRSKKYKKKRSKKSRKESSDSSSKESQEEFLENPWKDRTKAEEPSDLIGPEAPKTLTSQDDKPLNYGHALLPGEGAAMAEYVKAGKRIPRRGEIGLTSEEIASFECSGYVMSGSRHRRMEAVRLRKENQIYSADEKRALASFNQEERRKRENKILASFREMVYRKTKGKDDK
UniProt Q9NQ35: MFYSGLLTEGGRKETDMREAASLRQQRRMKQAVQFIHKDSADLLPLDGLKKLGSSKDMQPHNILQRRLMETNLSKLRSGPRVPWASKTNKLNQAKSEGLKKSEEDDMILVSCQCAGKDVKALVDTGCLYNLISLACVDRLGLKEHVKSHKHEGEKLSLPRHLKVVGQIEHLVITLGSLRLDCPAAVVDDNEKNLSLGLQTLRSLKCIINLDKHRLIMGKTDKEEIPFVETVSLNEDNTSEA

[2] = compound: NC(=O)c1cnc(N[C@@H]2CCCC[C@@H]2N)nc1Nc1cccc(-n2nccn2)c1
Outline: as §1

[3] = compound: NCC(=O)Nc1ccc(-n2nc(C(F)(F)F)cc2-c2ccc3c(ccc4ccccc43)c2)cc1
Outline: as §1

[4] = compound: Nc1ccccc1NC(=O)c1ccc(CNC(=O)OCc2cccnc2)cc1 [entinostat]
Outline: as §1

[5] = compound: O=C(CCCCCCC(=O)Nc1ccccc1)NO [vorinostat]
Outline: as §1

[6] = compound: O=C(CCCCCCNC(=O)c1cnc(N(c2ccccc2)c2ccccc2Cl)nc1)NO [citarinostat]
Outline: as §1

[7] = compound: O=C1NC(=O)C(c2cnc3ccccn23)=C1c1cn2c3c(cc(F)cc13)CN(C(=O)N1CCCCC1)CC2
Outline: as §1

[8] = compound: c1cc(OCCN2CCCCC2)cc(-c2n[nH]c3ccc(-c4nnc[nH]4)cc23)c1
Outline: as §1

[9] = compound: NC1(c2ccc(-c3nc4ccn5c(=O)[nH]nc5c4cc3-c3ccccc3)cc2)CCC1
Outline: as §1

[10] = compound: O=C(O)c1ccc2c(c1)nc(Nc1cccc(Cl)c1)c1ccncc12 [silmitasertib]
Outline: as §1

Measured: log2 fold change

NOMO1 (UniProt Q15155)
inactive: [1] -0.063 | [2] 0.147 | [3] -0.001 | [4] -0.004 | [5] 0.069 | [6] -0.11 | [7] -0.009 | [8] 0

NOC4L (UniProt Q9BVI4)
inactive: [5] -0.011

NMNAT3 (UniProt Q96T66)
inactive: [1] 0.178 | [9] 0.031 | [4] 0 | [6] -0.105 | [10] -0.073 | [7] -0.327 | [8] 0.02

NOP10 (UniProt Q9NPE3)
inactive: [9] 0.064 | [10] -0.012

NFKB2 (UniProt Q00653)
inactive: [2] 0.054 | [9] -0.024 | [6] 0.044 | [10] 0.071 | [7] -0.069 | [8] -0.104

NLRX1 (UniProt Q86UT6)
inactive: [1] 0.169 | [4] 0.104 | [7] -0.089

NMU (UniProt P48645)
inactive: [2] -0.023 | [3] 0.132 | [5] 0.041 | [6] 0.043 | [7] 0.144 | [8] -0.08

NSD3 (UniProt Q9BZ95)
inactive: [1] -0.21 | [2] -0.093 | [3] -0.242 | [4] -0.131 | [5] -0.037 | [7] 0.135

NKIRAS2 (UniProt Q9NYR9)
inactive: [1] -0.134 | [9] -0.117 | [4] 0 | [10] -0.145 | [7] -0.045

NFE2L1 (UniProt Q14494)
inactive: [3] 0.055 | [5] -0.025 | [7] -0.198

NETO2 (UniProt Q8NC67)
inactive: [3] -0.037

NFKBIA (UniProt P25963)
inactive: [1] -0.047 | [3] 0.048 | [4] 0.309 | [5] 0.037 | [6] 0.085 | [8] -0.026

NOTCH1 (UniProt P46531)
inactive: [7] 0.039

NEURL4 (UniProt Q96JN8)
inactive: [1] -0.011 | [2] -0.285 | [3] 0.098 | [4] -0.078 | [6] -0.105 | [8] 0.726

NELFCD (UniProt Q8IXH7)
inactive: [2] -0.005 | [3] -0.321 | [5] 0.234 | [7] -0.12

NEO1 (UniProt Q92859)
inactive: [2] -0.419 | [9] -0.125 | [3] 0.206 | [6] -0.347 | [10] 0.201 | [8] -0.297

NOMO3 (UniProt P69849)
inactive: [1] 0.006 | [4] 0.064 | [7] -0.014

NOD1 (UniProt Q9Y239)
inactive: [1] -0.064 | [4] -0.141 | [5] -0.157 | [6] -0.076 | [7] 0.056 | [8] 0.137

NSA2 (UniProt O95478)
inactive: [5] -0.022 | [7] 0

NOC3L (UniProt Q8WTT2)
inactive: [2] -0.489 | [9] -0.134 | [5] 0.004 | [10] 0.39 | [7] -0.057

NIPBL (UniProt Q6KC79)
inactive: [2] 0.071 | [6] 0.029 | [7] 0.014 | [8] -0.146

NKTR (UniProt P30414)
inactive: [9] 0.074 | [10] -0.023

NKAP (UniProt Q8N5F7)
inactive: [2] -0.043 | [9] 0.027 | [3] -0.028 | [5] 0.019 | [6] 0.099 | [10] -0.132 | [7] 0.111 | [8] -0.144

NME4 (UniProt O00746)
inactive: [9] 0.085 | [5] 0.123 | [6] 0.107 | [10] 0.041 | [8] 0.129

NRROS (UniProt Q86YC3)
inactive: [5] 0.059

NIPSNAP2 (UniProt C9J7B1)
inactive: [1] -0.009 | [2] 0.175 | [9] -0.017 | [4] 0.148 | [10] 0.019

NOL3 isoform 3 (UniProt O60936)
inactive: [1] -0.135 | [9] -0.018 | [3] 0.001 | [4] -0.04 | [6] -0.054 | [10] 0.006 | [7] 0.088 | [8] -0.072

Reprinted from the results shown (two entries):
NIPSNAP2 (UniProt C9J7B1)
inactive: [1] -0.009 | [2] 0.175 | [9] -0.017 | [4] 0.148 | [10] 0.019

NOL3 isoform 3 (UniProt O60936)
inactive: [1] -0.135 | [9] -0.018 | [3] 0.001 | [4] -0.04 | [6] -0.054 | [10] 0.006 | [7] 0.088 | [8] -0.072

Next records

NOS1AP (UniProt O75052)
inactive: [9] -0.27 | [3] -0.302 | [6] -0.225 | [10] 0.312 | [7] -0.186 | [8] 0.59

NEU3 isoform 2 (UniProt Q9UQ49)
inactive: [1] 0.112 | [4] -0.071

NOL4L (UniProt Q96MY1)
inactive: [1] 0.092 | [4] 0.076 | [7] 0.002

NRIP3 (UniProt Q9NQ35)
inactive: [1] 0.247 | [2] 0.12 | [4] 0.024

NGDN (UniProt Q8NEJ9)
inactive: [1] -0.088 | [4] -0.077

NRGN (UniProt Q92686)
inactive: [2] 0.144 | [5] -0.231 | [7] -0.215

NFATC1 (UniProt O95644)
inactive: [1] -0.295 | [9] -0.101 | [3] -0.025 | [4] 0.071 | [6] 0.036 | [10] 0.186 | [7] -0.267 | [8] -0.022

Reference: the supplement of paper PMC10849652
